Results are given in words; binding and its absence hold for the method and conditions named. Binding seen in cells or lysates may run through a third protein. Some results given as binding are weak or reduced against the parent protein; the word gives no strength. Tags and fused reporters may be left off the sequences shown.
Target: T1, Flag-tagged IRF3 full length (Interferon regulatory factor 3) (UniProt Q14653)
T1 sequence: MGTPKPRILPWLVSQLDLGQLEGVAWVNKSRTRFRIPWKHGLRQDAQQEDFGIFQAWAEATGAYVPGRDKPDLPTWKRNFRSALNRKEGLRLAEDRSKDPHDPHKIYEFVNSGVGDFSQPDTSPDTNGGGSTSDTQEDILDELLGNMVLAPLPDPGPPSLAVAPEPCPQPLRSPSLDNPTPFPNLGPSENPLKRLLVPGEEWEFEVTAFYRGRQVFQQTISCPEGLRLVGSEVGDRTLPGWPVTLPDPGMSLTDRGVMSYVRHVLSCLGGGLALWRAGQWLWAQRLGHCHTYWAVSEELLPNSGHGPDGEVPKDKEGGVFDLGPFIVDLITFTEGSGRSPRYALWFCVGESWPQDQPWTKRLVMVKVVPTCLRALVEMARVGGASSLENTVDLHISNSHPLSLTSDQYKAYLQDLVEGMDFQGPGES
Assay: co-IP; HEK293 T cells co-transfected with Myc-SOCS1 and Flag-IRF3, 24 h; 1% Triton X-100 lysis buffer (20 mM Tris-HCl pH 7.5, 200 mM NaCl); whole cell extract 300 ug precipitated overnight at 4 C with anti-MYC (9E10) or anti-IRF3 antiserum (methods; the legend says Flag or Myc antibodies) on A/G Plus-agarose; immunoblot

Protein sequences, listed by entry. Tags and fused reporters are not part of them.
UniProt O15524: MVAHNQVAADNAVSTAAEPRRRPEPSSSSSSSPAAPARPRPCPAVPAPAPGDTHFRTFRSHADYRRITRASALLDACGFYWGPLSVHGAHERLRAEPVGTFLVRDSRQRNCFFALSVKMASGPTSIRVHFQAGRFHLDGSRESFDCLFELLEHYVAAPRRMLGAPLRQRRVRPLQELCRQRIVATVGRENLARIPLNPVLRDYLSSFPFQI

In the case of “Myc-tagged SOCS1 full length (Suppressor of cytokine signaling 1) (from UniProt O15524 1-211)”, the binding was “binds”.

— paper PMC2973829
